The source of these data is paper PMC4980022.

By UniProt entry, the sequences of proteins in these tests, tags left out. Where a name states a change or a piece, a line headed by the entry shows the natural chain unless it says otherwise.
UniProt B2RLE8: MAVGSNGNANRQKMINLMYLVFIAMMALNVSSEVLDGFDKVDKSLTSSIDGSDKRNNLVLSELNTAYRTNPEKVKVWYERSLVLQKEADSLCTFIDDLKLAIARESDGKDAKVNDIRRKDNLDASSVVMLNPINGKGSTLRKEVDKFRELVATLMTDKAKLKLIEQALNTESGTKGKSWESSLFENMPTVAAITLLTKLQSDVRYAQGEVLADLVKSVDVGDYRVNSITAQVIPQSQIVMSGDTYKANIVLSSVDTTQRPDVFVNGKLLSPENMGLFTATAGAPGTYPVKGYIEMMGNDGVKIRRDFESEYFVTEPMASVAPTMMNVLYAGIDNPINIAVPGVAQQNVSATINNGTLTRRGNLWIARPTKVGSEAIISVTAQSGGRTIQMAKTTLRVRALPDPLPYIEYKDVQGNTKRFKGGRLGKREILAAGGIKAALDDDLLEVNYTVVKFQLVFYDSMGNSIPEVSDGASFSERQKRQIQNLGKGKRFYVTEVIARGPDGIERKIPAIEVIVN

No constants are given. Whether binding was seen depends on the method and setting. In cells and extracts the contact can be indirect. Binding calls can cover weak binding; strength is not graded here. Tags and fused reporters may be left off the sequences shown.

This test concerns the target T1, PorL-myc (Porphyromonas gingivalis ATCC 33277) (UniProt B2RLE9).
T1 sequence: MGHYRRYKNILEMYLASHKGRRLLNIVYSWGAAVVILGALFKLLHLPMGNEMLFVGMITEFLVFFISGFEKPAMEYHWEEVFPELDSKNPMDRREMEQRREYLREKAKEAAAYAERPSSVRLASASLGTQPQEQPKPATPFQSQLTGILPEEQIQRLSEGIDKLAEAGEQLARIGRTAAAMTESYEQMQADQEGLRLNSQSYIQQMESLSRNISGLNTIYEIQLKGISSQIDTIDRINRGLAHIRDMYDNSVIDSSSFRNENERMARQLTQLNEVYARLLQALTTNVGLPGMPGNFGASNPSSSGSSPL
Briefly: co-IP; porL/porL’-‘myc P. gingivalis lysed in 1% DDM, Myc agarose 1 hour at 4°C, lysozyme treatment, elution with SDS loading buffer or myc peptide; bands on SDS-PAGE identified by MS; wild type as negative control.

With PorN, the binding entry is reported as “no binding”.

With PorM (from UniProt B2RLE8), the binding entry is recorded as “binds”.
